The series in a line: general procedure: solution-phase peptide synthesis; EDAC.HCl/HOBt, N-methylmorpholine. The settings on record: acetate.

As to “H-Thia-Ser(O-tBu)-D-Tic-Oic-Arg(Pbf)-OtBu”, where the note is “late stage modification step”, the “crude HPLC purity” value is 82% and the step yield came out at 87.33%.
Consider “Boc-D-Arg(Pbf)-Arg(Pbf)-Pro-Hyp-Gly-Thia-Ser(O-tBu)-D-Tic-Oic-Arg(Pbf)-O-tBu”, for which, under “coupling step”, the “final HPLC purity” value is 92% and the step yield is 50%.
As for Fmoc-Thia-Ser(O-tBu)-D-Tic-Oic-OAll, where the note is “coupling step”, the “crude HPLC purity” value is given as 85% and the step yield is 87.33%.
As to Fmoc-Thia-Ser(O-tBu)-D-Tic-Oic-OH, where the note is “late stage modification step”, the “crude HPLC purity” value was 85.0% and the step yield came out at 83.85%.
Take “Fmoc-Hyp-Gly-Thia-Ser(O-tBu)-D-Tic-Oic-Arg(Pbf)-O-tBu”: where the note is “coupling step”, the “crude HPLC purity” value came to 89% and the step yield amounted to 85.23%.
As to Icatibant acetate, where the note is “late stage modification step”, the “final HPLC purity” value was 99.8% and the step yield came out at 35%.
For “H-Hyp-Gly-Thia-Ser(O-tBu)-D-Tic-Oic-Arg(Pbf)-O-tBu”, where the note is “late stage modification step”, the “crude HPLC purity” value amounted to 76% and the step yield was determined as 72.86%.
With “Fmoc-Thia-Ser(O-tBu)-D-Tic-Oic-Arg(Pbf)-O-tBu”, for the setting “coupling step”, the “crude HPLC purity” value turned out to be 86.0% and the step yield was determined as 96.95%.

Source of the values: patent US20190309014 (published 2019).
